Reference: the supplement of paper PMC10849652
The other results are listed elsewhere or left out.

Amino acid sequences for entries named in this document (tags omitted). A change or cut given only in a name is not applied to a line headed by its entry.
UniProt Q8NBF6: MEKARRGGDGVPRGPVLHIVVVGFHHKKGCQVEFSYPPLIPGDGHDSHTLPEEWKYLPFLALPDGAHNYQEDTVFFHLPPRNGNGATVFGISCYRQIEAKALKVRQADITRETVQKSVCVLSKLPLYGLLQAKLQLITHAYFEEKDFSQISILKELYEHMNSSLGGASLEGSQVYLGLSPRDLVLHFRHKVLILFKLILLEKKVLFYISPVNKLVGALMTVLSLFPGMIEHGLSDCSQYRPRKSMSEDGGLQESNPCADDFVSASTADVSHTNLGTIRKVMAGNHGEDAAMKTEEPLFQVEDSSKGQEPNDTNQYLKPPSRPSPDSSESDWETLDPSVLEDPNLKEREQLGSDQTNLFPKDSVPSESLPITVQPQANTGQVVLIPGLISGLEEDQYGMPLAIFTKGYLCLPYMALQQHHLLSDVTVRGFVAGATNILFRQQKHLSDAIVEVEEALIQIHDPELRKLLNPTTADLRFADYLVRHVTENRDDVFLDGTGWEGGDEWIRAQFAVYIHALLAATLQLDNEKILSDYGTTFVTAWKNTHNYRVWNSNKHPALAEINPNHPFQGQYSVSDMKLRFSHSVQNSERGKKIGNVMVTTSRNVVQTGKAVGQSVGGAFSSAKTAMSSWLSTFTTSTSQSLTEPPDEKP
UniProt Q9NUP1: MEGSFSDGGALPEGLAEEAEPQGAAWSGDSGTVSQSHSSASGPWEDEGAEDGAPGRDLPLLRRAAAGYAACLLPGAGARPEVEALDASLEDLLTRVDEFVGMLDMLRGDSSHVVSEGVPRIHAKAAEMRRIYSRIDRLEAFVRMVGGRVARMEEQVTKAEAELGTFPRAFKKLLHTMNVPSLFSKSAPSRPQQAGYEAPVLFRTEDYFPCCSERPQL
UniProt Q9UL15: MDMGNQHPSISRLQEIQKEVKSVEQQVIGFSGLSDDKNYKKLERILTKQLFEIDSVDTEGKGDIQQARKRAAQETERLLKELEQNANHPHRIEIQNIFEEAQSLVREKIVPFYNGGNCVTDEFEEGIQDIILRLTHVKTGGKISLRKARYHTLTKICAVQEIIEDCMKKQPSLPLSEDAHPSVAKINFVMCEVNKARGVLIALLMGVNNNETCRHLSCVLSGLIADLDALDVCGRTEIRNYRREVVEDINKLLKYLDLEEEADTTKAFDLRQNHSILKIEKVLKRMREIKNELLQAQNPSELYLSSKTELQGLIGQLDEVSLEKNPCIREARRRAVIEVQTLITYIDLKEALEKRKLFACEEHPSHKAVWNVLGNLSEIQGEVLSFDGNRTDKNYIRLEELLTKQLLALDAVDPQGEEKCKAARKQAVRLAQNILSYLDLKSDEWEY
UniProt Q12981: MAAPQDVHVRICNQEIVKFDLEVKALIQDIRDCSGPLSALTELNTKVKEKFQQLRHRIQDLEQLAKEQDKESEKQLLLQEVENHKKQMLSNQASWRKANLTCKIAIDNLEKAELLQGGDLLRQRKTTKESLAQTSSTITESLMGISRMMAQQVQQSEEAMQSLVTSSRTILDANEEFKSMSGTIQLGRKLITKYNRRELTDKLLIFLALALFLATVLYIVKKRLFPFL
UniProt Q9Y276: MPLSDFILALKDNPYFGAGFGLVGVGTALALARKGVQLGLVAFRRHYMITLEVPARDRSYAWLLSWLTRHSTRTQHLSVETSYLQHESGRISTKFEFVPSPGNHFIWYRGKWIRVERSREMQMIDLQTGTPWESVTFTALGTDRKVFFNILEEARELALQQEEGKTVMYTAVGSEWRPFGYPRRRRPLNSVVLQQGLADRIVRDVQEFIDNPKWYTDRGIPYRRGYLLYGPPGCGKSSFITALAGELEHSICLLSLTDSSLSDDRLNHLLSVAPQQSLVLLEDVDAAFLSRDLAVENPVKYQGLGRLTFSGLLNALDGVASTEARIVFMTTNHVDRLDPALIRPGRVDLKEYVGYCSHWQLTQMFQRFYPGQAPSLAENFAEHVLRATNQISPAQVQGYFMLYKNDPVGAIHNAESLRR
UniProt Q9UHR4: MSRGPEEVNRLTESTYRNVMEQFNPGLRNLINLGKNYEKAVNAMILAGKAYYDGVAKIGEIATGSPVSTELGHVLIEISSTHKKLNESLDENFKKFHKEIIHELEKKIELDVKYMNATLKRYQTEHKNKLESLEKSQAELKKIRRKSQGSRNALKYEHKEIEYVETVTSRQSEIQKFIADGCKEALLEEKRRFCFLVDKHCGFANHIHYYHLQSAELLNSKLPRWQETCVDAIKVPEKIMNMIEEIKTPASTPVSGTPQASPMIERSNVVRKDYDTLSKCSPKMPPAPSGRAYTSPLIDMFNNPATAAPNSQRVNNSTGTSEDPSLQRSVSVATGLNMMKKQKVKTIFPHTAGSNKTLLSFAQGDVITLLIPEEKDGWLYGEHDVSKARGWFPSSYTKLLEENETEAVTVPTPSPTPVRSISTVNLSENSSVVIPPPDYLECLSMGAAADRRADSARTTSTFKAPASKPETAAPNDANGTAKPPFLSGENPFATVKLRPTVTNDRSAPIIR
UniProt Q8WY22: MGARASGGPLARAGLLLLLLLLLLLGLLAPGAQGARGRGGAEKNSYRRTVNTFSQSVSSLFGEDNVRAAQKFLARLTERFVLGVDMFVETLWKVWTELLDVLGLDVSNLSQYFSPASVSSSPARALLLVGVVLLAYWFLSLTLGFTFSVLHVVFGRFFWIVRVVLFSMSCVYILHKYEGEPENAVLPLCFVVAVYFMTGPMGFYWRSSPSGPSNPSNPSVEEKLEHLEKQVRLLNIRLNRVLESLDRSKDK
UniProt Q53S33: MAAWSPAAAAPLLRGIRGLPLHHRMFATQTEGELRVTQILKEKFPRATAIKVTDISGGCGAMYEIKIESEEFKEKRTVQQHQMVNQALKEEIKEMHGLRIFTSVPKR
UniProt Q96GX2: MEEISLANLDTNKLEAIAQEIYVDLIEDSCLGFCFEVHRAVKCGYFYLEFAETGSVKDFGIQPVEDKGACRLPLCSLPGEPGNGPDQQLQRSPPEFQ
UniProt P78537: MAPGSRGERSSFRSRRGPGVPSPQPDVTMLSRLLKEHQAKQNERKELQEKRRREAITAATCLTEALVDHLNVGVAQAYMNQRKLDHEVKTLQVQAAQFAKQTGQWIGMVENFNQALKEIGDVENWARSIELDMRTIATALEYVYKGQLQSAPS
UniProt O95861: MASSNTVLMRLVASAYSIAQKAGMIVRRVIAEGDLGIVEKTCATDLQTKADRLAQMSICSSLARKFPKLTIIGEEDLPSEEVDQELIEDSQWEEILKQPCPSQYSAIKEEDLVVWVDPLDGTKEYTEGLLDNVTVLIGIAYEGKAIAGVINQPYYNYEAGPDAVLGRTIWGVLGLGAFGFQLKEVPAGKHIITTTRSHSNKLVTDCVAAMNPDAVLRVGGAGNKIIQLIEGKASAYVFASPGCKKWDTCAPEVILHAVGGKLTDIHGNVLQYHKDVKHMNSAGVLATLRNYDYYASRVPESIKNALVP
UniProt P54687: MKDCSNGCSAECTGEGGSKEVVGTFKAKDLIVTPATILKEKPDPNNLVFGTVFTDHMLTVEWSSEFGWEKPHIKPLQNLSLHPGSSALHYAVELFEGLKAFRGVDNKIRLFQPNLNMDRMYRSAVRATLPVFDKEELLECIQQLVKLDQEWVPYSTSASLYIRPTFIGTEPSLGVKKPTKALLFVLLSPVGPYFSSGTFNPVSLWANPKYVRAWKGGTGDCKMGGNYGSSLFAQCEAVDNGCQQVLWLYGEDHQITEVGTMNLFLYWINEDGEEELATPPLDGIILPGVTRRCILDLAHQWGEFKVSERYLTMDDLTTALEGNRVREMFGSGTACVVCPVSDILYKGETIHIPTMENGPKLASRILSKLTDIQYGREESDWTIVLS
UniProt Q8TD16, whole entry, looked up: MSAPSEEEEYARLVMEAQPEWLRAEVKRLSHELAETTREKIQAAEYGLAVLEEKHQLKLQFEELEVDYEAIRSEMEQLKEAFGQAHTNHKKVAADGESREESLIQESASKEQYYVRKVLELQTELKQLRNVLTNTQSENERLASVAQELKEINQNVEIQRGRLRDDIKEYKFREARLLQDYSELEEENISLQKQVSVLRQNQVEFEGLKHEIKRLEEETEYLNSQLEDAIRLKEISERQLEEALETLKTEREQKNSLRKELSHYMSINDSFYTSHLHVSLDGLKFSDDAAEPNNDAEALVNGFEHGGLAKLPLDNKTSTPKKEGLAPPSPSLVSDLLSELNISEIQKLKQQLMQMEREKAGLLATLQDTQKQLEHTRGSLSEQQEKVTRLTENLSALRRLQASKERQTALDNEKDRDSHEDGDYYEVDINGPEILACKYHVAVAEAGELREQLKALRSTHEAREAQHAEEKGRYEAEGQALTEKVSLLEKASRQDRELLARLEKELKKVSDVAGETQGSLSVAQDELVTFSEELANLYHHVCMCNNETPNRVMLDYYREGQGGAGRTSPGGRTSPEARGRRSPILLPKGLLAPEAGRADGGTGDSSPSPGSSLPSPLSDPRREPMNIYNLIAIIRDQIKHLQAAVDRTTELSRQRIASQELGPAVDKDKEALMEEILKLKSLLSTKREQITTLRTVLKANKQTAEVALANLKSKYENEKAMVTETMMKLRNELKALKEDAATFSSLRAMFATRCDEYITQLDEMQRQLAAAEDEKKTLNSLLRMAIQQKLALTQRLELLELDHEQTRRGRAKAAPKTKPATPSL
UniProt O60512: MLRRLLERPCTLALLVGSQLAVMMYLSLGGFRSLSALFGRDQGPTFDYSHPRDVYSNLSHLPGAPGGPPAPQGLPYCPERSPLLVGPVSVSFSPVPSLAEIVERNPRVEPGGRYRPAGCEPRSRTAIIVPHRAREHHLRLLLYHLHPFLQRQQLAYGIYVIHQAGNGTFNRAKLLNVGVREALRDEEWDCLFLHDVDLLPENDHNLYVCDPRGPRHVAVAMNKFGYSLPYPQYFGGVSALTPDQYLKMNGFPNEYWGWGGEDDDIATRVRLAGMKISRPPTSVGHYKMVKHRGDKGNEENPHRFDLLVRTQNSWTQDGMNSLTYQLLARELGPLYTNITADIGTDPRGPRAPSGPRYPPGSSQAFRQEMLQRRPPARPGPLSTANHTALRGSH
UniProt P53004: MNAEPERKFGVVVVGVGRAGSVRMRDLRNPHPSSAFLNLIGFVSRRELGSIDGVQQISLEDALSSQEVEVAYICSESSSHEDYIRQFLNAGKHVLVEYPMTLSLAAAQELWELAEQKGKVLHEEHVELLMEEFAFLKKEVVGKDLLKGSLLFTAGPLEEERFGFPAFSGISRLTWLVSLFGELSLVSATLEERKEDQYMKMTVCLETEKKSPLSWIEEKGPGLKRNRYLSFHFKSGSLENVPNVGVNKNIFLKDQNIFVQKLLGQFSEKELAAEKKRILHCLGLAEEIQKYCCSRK

Assays:
Experiment in all cases: log2 fold change, soluble protein after heating vs DMSO (PISA); higher = thermal stabilisation; K562 cells, 10 uM, 30 min; active = over 0.2 and 3.5 SD of the protein, either way, in both replicates (recomputed)
[1] = compound: CC1=C(C=C(C=C1)NC(=O)C2=CC(=CC=C2)C(C)(C)C#N)NC3=CC4=C(C=C3)N=CN(C4=O)C
Summary of the method: (§1)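 Values are thermal stability changes relative to control samples and are taken from duplicates. They are stated as log2 fold changes. Before quantification by TMTpro 16plex LC-MS/MS with equalised channel sums, K562 cells at 2×10^6 cells/mL were treated with 10 μM compound for 30 min, heated in aliquots for 3 min across 48°C-58°C, pooled, extracted in PBS with 0.5% NP-40 at 4°C, and centrifuged at 21,000xg for 90 min to give the soluble supernatant.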

[2] = compound: CC1=C(C=C(C=C1)NC(=O)C2=CC(=CC=C2)N(C)C)NC(=O)C3=CC=C(C=C3)O
Summary of the method: as §1

[3] = compound: CC1=CC=C(C=C1)SC2=C3C=C(SC3=CN=C2)C(=O)N
Summary of the method: as §1

[4] = compound: CC1=NC(=CC=C1)C2=C(N=C(N2)C(C)(C)C)C3=CC4=NC=CN=C4C=C3
Summary of the method: as §1

[5] = compound: CCCCN(Cc1ccc(C(=O)NO)cc1)C(=O)Nc1ccccc1 [Nexturastat A]
Summary of the method: as §1

[6] = compound: CCCS(=O)(=O)Nc1ccc(F)c(C(=O)c2c[nH]c3ncc(-c4ccc(Cl)cc4)cc23)c1F [vemurafenib]
Summary of the method: as §1

[7] = compound: CCCS(=O)(=O)Nc1ccc(F)c(C(=O)c2c[nH]c3ncc(Cl)cc23)c1F
Summary of the method: as §1

[8] = compound: CCCc1cc(C)[nH]c(=O)c1CNC(=O)c1cc(-c2ccnc(N3CCN(C)CC3)c2)cc2c1cnn2C(C)C
Summary of the method: as §1

[9] = compound: CCN(CC)Cc1ccc2cc(COC(=O)Nc3ccc(C(=O)NO)cc3)ccc2c1 [givinostat]
Summary of the method: as §1

[10] = compound: CCN(CCCOc1ccc2c(Nc3cc(CC(=O)Nc4cccc(F)c4)[nH]n3)ncnc2c1)CCOP(=O)(O)O [barasertib]
Summary of the method: as §1

[11] = compound: CC[C@@H]1C(=O)N(C)c2cnc(Nc3ccc(C(=O)NC4CCN(C)CC4)cc3OC)nc2N1C1CCCC1
Summary of the method: as §1

[12] = compound: CC[C@@H]1C(=O)N(C)c2cnc(Nc3ccc(C(=O)N[C@H]4CC[C@H](N5CCN(CC6CC6)CC5)CC4)cc3OC)nc2N1C(C)C [volasertib]
Summary of the method: as §1

[13] = compound: CC[C@H](C)N1C=C(C2=C(C=C(C=C21)C3=CN=C(C=C3)N4CCNCC4)C(=O)NCC5=C(C=C(NC5=O)C)C)C
Summary of the method: as §1

[14] = compound: CC[C@H](C)[C@@H](C(=O)N[C@@H]([C@@H](C)O)C(=O)N[C@@H](CC(C)C)C(=O)[C@]1(CO1)C)NC(=O)[C@H]([C@@H](C)CC)N(C)C(=O)C [epoxomicin]
Summary of the method: as §1

[15] = compound: CCn1c(C(=O)N(C2CC2)C2CC2)cc2c3c(ncn3C)c(Nc3cc(C)n(C)n3)nc21
Summary of the method: as §1

[16] = compound: CCn1cc(-c2ccnc3[nH]c(-c4cccc(CN(C)C)c4)cc23)c(-c2ccc(NC(=O)N(C)C)cc2)n1
Summary of the method: as §1

[17] = compound: CN(C)CC(=O)Nc1ccc2[nH]c(=O)c3ccccc3c2c1
Summary of the method: as §1

[18] = compound: CN(CCOC1=CC=C(C=C1)C[C@H]2C(=O)NC(=O)S2)C3=CC=CC=N3 (racemic) [rosiglitazone]
Summary of the method: as §1

[19] = compound: CN1C2=C(C3=C1C(=O)N(N=C3)CC4=CC(=CC=C4)N)SC(=C2)S(=O)C
Summary of the method: as §1

[20] = compound: CN1CCC(CNc2ccc3ncc(-c4cccc(OC(F)(F)F)c4)n3n2)CC1
Summary of the method: as §1

Measured: log2 fold change

AVL9 (UniProt Q8NBF6)
inactive: [1] 0.018 | [2] -0.007 | [3] 0.052 | [4] 0.034 | [5] -0.024 | [6] 0.041 | [7] 0.086 | [8] -0.071 | [9] 0.034 | [10] 0.007 | [11] -0.05 | [12] -0.198 | [13] 0.005 | [14] 0.024 | [15] 0.005 | [16] -0.041 | [17] -0.004 | [18] 0.022 | [19] -0.066 | [20] -0.192

BAHCC1 (UniProt Q9P281)
inactive: [1] 0.009 | [2] -0.046 | [3] -0.106 | [4] -0.072 | [5] -0.057 | [6] -0.163 | [7] -0.244 | [8] -0.522 | [9] 0.043 | [10] 0.061 | [11] 0.238 | [12] -0.07 | [13] -0.223 | [14] -0.168 | [15] 0.024 | [16] 0.069 | [17] -0.183 | [18] 0.183 | [19] 0.06 | [20] -0.163

BLOC1S4 (UniProt Q9NUP1)
inactive: [1] 0.014 | [2] 0.042 | [3] 0.024 | [4] 0.032 | [5] -0.111 | [6] 0.114 | [7] -0.021 | [8] -0.001 | [9] 0.041 | [10] 0.061 | [11] -0.113 | [12] 0.015 | [13] 0.002 | [14] -0.014 | [15] -0.012 | [16] 0.012 | [17] 0.043 | [18] 0.018 | [19] -0.019 | [20] -0.078

BAG5 isoform 2 (UniProt Q9UL15)
inactive: [1] -0.047 | [2] 0.038 | [3] 0.083 | [4] 0.035 | [5] 0.005 | [6] 0.07 | [7] 0.073 | [8] -0.022 | [9] -0.011 | [10] 0.057 | [11] -0.111 | [12] -0.092 | [13] 0.135 | [14] 0.015 | [15] -0.017 | [16] -0.034 | [17] -0.065 | [18] -0.019 | [20] -0.002

BNIP1 (UniProt Q12981)
inactive: [1] 0.005 | [2] 0.022 | [3] -0.008 | [4] 0.005 | [5] -0.049 | [6] 0.009 | [7] 0.029 | [8] -0.051 | [9] 0.038 | [10] 0.019 | [11] -0.021 | [12] -0.055 | [13] 0.004 | [14] -0.02 | [15] 0.006 | [16] -0.009 | [17] 0.014 | [18] 0.043 | [19] -0.036 | [20] -0.067

BCS1L (UniProt Q9Y276)
inactive: [1] -0.004 | [2] -0.03 | [3] 0.011 | [4] -0.014 | [5] -0.043 | [6] -0.026 | [7] -0.007 | [8] 0.016 | [9] 0.031 | [10] 0.027 | [11] 0.022 | [12] 0.031 | [13] -0.003 | [14] -0.003 | [15] 0.003 | [16] -0.059 | [17] -0.028 | [18] 0.021 | [19] -0.028 | [20] 0.059

BAIAP2L1 (UniProt Q9UHR4)
inactive: [1] 0.006 | [2] 0.039 | [3] -0.019 | [4] -0.018 | [5] -0.022 | [6] -0.029 | [7] -0.019 | [8] -0.01 | [9] -0.014 | [10] -0.003 | [11] 0.036 | [12] 0.051 | [13] 0.014 | [14] 0.014 | [15] 0.029 | [16] -0.009 | [17] -0.009 | [18] -0.002 | [19] -0.03 | [20] -0.002

BRI3BP (UniProt Q8WY22)
inactive: [1] -0.009 | [2] 0.043 | [3] -0.018 | [4] -0.014 | [5] 0.119 | [6] -0.105 | [7] -0.007 | [8] -0.063 | [9] -0.066 | [10] 0.038 | [11] 0.022 | [12] 0.038 | [13] -0.005 | [14] 0.048 | [15] -0.095 | [17] -0.022 | [18] -0.065 | [19] 0.04

BOLA3 (UniProt Q53S33)
inactive: [1] -0.006 | [2] -0.001 | [3] 0.031 | [4] 0.012 | [5] -0.031 | [6] -0.003 | [7] -0.009 | [8] -0.025 | [9] -0.009 | [10] 0.005 | [11] -0.002 | [12] 0.062 | [13] -0.003 | [14] 0.02 | [15] -0.018 | [16] 0.063 | [17] -0.013 | [18] 0.012 | [19] -0.027 | [20] 0.035

ATXN7L3B (UniProt Q96GX2)
inactive: [1] -0.051 | [2] 0.039 | [3] -0.016 | [4] -0.051 | [5] 0.101 | [6] -0.048 | [7] -0.024 | [8] -0.02 | [9] 0.002 | [10] 0.029 | [11] -0.02 | [12] -0.041 | [13] -0.002 | [14] 0.021 | [15] 0.014 | [16] 0.021 | [17] 0.146 | [18] 0.023 | [19] -0.036 | [20] -0.031

BLOC1S1 (UniProt P78537)
inactive: [1] 0.014 | [2] -0.044 | [3] 0.04 | [4] -0.003 | [5] -0.037 | [6] 0.096 | [7] -0.015 | [8] 0.001 | [9] 0.024 | [10] 0.043 | [11] -0.011 | [12] -0.018 | [13] -0.002 | [14] 0.12 | [15] 0.018 | [16] -0.047 | [17] -0.028 | [18] 0.026 | [19] -0.083 | [20] 0.063

BPNT1 (UniProt O95861)
inactive: [1] 0.014 | [2] -0.022 | [3] 0.004 | [4] 0.013 | [5] -0.029 | [6] -0.007 | [7] 0.025 | [8] -0.039 | [9] -0.07 | [10] -0.003 | [11] 0.018 | [12] 0.086 | [13] -0.005 | [14] 0.036 | [15] 0.034 | [16] -0.041 | [17] -0.024 | [18] 0.009 | [19] -0.096 | [20] 0.016

Reprinted at random: 2 records from the list.
BRI3BP (UniProt Q8WY22)
inactive: [1] -0.009 | [2] 0.043 | [3] -0.018 | [4] -0.014 | [5] 0.119 | [6] -0.105 | [7] -0.007 | [8] -0.063 | [9] -0.066 | [10] 0.038 | [11] 0.022 | [12] 0.038 | [13] -0.005 | [14] 0.048 | [15] -0.095 | [17] -0.022 | [18] -0.065 | [19] 0.04

BPNT1 (UniProt O95861)
inactive: [1] 0.014 | [2] -0.022 | [3] 0.004 | [4] 0.013 | [5] -0.029 | [6] -0.007 | [7] 0.025 | [8] -0.039 | [9] -0.07 | [10] -0.003 | [11] 0.018 | [12] 0.086 | [13] -0.005 | [14] 0.036 | [15] 0.034 | [16] -0.041 | [17] -0.024 | [18] 0.009 | [19] -0.096 | [20] 0.016

Following part.

BCAT1 (UniProt P54687)
inactive: [1] -0.021 | [2] 0.026 | [3] 0.045 | [4] 0.003 | [5] -0.047 | [6] -0.006 | [7] -0.011 | [8] -0.038 | [9] -0.092 | [10] -0.011 | [11] -0.005 | [12] 0.045 | [13] -0.058 | [14] -0.027 | [15] -0.031 | [16] -0.029 | [17] -0.008 | [18] 0.012 | [19] -0.056 | [20] -0.051

BICD2 isoform 2 (UniProt Q8TD16)
inactive: [1] 0.016 | [2] -0.057 | [3] -0.012 | [4] 0.043 | [5] 0.012 | [6] 0.043 | [7] 0.019 | [8] 0.034 | [9] 0.059 | [10] 0.092 | [11] 0.035 | [12] -0.112 | [13] 0.08 | [14] -0.004 | [15] -0.024 | [16] -0.057 | [17] 0.031 | [18] 0.069 | [19] -0.019 | [20] 0.028

B4GALT3 (UniProt O60512)
inactive: [1] 0.047 | [2] 0.039 | [3] -0.03 | [4] 0.103 | [5] -0.205 | [6] 0.083 | [7] -0.002 | [8] 0.053 | [9] -0.028 | [10] -0.008 | [11] -0.023 | [12] -0.067 | [13] 0.134 | [14] -0.056 | [15] 0.124 | [16] 0.033 | [17] -0.02 | [18] 0.092 | [19] -0.03 | [20] 0.01

BLVRA (UniProt P53004)
inactive: [1] -0.008 | [2] 0.012 | [3] -0.005 | [4] -0.003 | [5] -0.042 | [6] -0.003 | [7] 0.016 | [8] -0.01 | [9] -0.014 | [10] 0 | [11] 0.014 | [12] 0.029 | [13] 0.026 | [14] 0.018 | [15] 0.032 | [16] -0.111 | [17] 0.007 | [18] 0.047 | [19] -0.092 | [20] -0.141
